In BindingDB's records for patent US11547697 (Millennium Pharmaceuticals, 2023):

Molecular target: Serine/threonine-protein kinase mTOR (Homo sapiens, UniProt P42345)
Assay: Inhibition Assays of mTOR

Nc1nc2cc(-c3ccc4nccc(-c5ccncc5)c4c3)ccc2o1 [US11547697, Compound 1]
IC50: < 1 µM
